Values of other authors as cited in article PMC4959829 (Biochemical Pharmacology, 2016).

Settings: cited from earlier work

## CCCCc1oc2ccccc2c1C(=O)c1cc(I)c(OCCN(CC)CC)c(I)c1 [Amiodarone, amiodarone]
  Plasma clinical concentration range: 1.6 to 5.9 µM
